Results from the supplement of paper PMC10849652.
This is one part of the list.

By UniProt entry, the sequences of proteins in these tests, tags left out. Where a name states a change or a piece, a line headed by the entry shows the natural chain unless it says otherwise.
UniProt P30038: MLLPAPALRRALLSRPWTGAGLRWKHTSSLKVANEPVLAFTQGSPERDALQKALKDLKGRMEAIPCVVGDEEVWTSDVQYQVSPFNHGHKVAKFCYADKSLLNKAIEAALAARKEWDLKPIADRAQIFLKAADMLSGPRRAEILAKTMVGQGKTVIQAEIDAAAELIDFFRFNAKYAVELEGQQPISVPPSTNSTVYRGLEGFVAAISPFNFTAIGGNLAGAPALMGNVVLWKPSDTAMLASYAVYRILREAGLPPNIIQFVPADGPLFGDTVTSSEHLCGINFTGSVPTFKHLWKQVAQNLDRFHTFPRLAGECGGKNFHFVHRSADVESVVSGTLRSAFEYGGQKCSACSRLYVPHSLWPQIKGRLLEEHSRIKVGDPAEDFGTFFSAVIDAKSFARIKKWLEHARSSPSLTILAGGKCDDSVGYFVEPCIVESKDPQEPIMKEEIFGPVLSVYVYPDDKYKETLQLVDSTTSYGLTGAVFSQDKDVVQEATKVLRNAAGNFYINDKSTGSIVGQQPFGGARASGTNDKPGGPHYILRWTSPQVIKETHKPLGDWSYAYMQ
UniProt Q9BTT0: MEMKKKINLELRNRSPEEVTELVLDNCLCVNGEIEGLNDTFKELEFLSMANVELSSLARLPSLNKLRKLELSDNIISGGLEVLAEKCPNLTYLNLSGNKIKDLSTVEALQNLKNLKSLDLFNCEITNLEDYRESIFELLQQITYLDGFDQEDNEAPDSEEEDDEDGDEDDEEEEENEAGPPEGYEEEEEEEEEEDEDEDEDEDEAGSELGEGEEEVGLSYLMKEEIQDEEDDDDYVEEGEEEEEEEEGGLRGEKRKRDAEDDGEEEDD
UniProt Q8IZ83: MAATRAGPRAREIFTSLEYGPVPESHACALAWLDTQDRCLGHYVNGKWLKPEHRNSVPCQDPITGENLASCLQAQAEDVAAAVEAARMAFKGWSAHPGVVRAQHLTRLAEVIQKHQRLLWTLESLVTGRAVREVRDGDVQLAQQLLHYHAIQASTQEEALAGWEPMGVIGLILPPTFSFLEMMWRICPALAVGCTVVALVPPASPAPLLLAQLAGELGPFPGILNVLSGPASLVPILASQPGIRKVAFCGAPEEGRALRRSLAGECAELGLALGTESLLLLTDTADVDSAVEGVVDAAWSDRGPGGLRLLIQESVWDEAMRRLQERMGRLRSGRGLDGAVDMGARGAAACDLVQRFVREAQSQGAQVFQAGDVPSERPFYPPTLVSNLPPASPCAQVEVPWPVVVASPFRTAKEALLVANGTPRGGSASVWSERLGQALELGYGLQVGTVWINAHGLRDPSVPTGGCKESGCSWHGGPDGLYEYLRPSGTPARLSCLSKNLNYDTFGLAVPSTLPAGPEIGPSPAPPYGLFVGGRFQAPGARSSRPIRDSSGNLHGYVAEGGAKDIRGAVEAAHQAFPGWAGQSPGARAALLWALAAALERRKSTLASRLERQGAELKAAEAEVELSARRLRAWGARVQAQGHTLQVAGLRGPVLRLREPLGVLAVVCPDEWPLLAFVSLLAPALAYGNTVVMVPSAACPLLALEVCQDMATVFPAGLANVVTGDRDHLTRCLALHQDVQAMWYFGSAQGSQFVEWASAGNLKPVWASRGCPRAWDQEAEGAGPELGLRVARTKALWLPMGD
UniProt Q8NB46: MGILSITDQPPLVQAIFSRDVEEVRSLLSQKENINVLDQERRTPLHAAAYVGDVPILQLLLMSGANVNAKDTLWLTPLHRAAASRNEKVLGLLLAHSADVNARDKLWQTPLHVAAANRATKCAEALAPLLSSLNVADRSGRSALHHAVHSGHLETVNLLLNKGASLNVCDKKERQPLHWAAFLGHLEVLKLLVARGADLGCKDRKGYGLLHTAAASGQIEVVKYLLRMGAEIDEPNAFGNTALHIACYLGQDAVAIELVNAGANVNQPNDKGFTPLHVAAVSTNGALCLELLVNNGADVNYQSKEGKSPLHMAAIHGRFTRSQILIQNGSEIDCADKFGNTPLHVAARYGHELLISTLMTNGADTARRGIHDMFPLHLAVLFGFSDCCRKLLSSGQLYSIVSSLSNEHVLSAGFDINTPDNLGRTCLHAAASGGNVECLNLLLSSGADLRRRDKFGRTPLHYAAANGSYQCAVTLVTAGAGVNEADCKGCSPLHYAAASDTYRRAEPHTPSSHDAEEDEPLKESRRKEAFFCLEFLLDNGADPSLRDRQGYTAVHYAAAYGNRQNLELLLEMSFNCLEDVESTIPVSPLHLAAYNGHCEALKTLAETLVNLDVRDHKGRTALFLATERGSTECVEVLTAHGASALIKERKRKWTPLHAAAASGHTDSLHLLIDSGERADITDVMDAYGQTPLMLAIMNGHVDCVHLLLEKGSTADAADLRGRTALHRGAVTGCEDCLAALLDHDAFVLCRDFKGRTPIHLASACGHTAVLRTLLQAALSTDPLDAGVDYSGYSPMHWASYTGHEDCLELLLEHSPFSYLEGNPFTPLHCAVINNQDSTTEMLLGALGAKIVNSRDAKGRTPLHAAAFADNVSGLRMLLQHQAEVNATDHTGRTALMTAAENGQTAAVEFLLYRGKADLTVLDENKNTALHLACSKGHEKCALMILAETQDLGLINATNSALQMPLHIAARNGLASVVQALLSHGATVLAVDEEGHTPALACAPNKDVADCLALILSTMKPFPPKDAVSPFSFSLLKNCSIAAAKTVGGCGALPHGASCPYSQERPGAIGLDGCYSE
UniProt P56377: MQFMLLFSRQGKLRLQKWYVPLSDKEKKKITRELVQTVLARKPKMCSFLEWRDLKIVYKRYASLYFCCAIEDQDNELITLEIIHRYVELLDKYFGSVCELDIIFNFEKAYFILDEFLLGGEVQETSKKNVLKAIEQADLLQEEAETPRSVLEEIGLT
UniProt Q9NW15: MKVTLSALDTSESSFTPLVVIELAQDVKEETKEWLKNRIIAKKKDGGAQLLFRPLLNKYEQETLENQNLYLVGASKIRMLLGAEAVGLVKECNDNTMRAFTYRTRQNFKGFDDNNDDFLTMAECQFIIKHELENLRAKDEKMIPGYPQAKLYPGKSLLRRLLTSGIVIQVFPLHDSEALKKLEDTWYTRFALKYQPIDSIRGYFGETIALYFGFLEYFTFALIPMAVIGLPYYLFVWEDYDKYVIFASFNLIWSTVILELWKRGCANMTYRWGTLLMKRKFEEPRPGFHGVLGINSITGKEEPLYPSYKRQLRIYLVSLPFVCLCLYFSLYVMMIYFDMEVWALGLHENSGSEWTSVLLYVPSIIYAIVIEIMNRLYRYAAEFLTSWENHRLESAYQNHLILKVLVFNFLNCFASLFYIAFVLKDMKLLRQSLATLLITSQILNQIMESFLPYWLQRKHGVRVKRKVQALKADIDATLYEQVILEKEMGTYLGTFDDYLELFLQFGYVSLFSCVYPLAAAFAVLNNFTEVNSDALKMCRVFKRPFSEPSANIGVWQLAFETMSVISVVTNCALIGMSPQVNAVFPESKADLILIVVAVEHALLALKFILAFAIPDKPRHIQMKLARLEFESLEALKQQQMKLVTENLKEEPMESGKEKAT
UniProt O94788: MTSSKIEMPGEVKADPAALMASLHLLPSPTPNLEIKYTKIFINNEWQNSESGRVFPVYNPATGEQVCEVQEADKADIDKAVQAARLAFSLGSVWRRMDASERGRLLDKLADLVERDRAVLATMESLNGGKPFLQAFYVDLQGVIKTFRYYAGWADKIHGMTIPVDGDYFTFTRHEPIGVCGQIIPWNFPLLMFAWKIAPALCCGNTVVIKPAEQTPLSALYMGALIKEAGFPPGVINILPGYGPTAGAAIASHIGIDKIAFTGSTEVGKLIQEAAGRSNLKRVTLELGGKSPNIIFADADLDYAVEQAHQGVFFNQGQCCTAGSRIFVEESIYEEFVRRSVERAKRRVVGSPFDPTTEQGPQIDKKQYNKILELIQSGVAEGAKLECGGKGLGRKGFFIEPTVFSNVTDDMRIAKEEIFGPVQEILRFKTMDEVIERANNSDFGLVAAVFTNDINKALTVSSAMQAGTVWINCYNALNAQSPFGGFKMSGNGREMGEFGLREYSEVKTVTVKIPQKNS
UniProt Q8IWZ3: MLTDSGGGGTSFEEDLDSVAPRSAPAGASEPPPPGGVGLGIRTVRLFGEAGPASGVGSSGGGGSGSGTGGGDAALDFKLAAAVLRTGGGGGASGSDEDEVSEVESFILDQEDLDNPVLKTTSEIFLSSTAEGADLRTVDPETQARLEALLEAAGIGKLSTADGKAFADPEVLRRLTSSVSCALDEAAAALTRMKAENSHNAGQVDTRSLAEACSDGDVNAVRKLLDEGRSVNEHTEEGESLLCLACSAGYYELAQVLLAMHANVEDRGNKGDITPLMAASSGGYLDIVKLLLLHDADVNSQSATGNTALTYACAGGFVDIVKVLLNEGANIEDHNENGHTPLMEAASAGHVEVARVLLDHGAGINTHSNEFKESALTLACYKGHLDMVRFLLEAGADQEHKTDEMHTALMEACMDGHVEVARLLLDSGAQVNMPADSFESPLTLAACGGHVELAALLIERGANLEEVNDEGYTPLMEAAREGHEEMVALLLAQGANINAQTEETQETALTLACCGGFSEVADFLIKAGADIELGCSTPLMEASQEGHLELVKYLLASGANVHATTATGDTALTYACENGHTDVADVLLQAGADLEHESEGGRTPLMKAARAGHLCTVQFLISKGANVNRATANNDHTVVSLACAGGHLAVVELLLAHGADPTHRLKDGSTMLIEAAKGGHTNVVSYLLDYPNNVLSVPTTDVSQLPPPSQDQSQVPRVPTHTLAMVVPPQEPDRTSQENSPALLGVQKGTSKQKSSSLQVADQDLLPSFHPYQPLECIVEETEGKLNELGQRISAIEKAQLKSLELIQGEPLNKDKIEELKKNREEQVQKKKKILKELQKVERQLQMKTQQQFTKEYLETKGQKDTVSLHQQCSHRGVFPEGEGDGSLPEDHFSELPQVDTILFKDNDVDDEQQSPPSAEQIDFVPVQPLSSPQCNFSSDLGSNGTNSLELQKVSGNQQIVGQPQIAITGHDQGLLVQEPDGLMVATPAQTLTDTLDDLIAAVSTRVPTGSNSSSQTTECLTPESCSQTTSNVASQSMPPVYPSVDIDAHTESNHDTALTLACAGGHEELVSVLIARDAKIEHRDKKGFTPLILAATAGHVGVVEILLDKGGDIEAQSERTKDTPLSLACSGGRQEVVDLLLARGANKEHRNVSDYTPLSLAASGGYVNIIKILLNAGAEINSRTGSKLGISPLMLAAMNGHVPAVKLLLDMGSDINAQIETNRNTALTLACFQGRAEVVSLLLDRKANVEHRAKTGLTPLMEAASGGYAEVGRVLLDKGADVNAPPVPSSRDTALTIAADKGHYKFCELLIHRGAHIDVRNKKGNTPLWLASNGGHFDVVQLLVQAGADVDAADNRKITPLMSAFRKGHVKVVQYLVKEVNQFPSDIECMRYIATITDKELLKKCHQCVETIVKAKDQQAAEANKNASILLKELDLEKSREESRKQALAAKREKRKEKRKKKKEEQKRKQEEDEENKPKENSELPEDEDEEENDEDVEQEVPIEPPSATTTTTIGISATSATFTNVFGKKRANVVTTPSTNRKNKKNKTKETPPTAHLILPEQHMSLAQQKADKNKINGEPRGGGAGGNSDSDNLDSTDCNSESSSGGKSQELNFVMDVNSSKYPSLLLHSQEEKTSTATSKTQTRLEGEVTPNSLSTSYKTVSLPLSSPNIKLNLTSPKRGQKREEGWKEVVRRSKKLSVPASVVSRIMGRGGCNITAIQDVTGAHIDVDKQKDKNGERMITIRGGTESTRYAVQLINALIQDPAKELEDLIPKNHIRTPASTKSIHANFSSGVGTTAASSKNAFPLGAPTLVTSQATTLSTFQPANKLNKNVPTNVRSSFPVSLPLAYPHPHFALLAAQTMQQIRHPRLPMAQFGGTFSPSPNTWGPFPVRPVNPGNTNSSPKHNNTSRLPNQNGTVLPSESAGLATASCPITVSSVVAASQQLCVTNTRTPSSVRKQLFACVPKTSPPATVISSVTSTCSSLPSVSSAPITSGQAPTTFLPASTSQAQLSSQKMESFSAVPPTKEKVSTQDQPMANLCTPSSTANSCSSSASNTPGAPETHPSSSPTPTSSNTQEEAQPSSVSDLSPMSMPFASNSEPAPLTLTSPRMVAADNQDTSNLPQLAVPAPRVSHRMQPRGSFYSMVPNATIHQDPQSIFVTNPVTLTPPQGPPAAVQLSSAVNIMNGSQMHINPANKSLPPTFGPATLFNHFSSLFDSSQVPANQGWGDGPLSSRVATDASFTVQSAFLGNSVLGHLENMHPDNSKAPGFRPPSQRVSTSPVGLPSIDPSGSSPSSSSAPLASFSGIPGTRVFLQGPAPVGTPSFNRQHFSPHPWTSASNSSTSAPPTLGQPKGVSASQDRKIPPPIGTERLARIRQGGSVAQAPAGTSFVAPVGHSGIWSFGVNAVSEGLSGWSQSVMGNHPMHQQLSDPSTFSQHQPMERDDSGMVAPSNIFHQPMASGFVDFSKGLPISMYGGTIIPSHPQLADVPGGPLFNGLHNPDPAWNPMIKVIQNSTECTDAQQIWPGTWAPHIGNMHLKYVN

What follows are targets tested with Cc1cn(-c2cc(NC(=O)c3ccc(C)c(Nc4nccc(-c5cccnc5)n4)c3)cc(C(F)(F)F)c2)cn1 [nilotinib] (assay: log2 fold change, soluble protein after heating vs DMSO (PISA); higher = thermal stabilisation; K562 lysate, 10 uM; active = over 0.2 and 3.5 SD of the protein, either way, in both replicates (recomputed)).
Outline: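 To prepare the extract, K562 pellets were dounce-homogenised in PBS pH 7.4 with 1 mM MgCl2, giving crude material at 1 mg/mL protein. This was treated with 10 μM compound for 30 min, then heated in aliquots for 3 min over 48°C-58°C before pooling and addition of NP-40 to 0.5% at 4°C. Centrifugation at 21,000xg for 90 min left soluble protein in the supernatant, which TMTpro 16plex LC-MS/MS quantified with equalised channel sums. Results are log-two fold changes in thermal stability compared with solvent controls, from duplicates.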

log2 fold change, inactive:
ALDH4A1 (UniProt P30038) -0.005, ALG8 (UniProt Q9BVK2) -0.007, AP3M1 (UniProt Q9Y2T2) 0.001, ALS2 (UniProt Q96Q42) 0.099, ANXA7 (UniProt P20073) 0.001, ALKBH2 (UniProt Q6NS38) -0.043, ANKRD13D isoform 3 (UniProt Q6ZTN6) 0.086, AMD1 (UniProt P17707) -0.05, AKT1S1 isoform 3 (UniProt Q96B36) 0.036, ANO6 (UniProt Q4KMQ2) -0.046, ANAPC2 (UniProt Q9UJX6) -0.047, ANP32E (UniProt Q9BTT0) 0.075, ANKRD49 (UniProt Q8WVL7) 0.029, AP2S1 (UniProt P53680) -0.075, ANXA2 isoform 2 (UniProt P07355) 0.035, ANKRD28 (UniProt O15084) 0.007, ALDH16A1 (UniProt Q8IZ83) 0.028, ANKMY2 (UniProt Q8IV38) 0.04, AP1G1 isoform 2 (UniProt O43747) -0.002, ANKRD52 (UniProt Q8NB46) 0.041, ALDH2 (UniProt P05091) 0.028, ANK3 (UniProt Q12955) 0.054, AP1S2 isoform 2 (UniProt P56377) -0.034, ANXA6 (UniProt P08133) -0.019, ALAD (UniProt P13716) 0.002, AKT2 (UniProt P31751) -0.013, ANKS1A (UniProt Q92625) -0.012, ANO10 (UniProt Q9NW15) 0.019, ANKRD29 (UniProt Q8N6D5) -0.015, ALKBH8 isoform 4 (UniProt Q96BT7) -0.018, ALDH1A2 (UniProt O94788) 0.014, ANKHD1 isoform 6 (UniProt Q8IWZ3) -0.02, ALDOA (UniProt P04075) 0.017, AP2M1 (UniProt Q96CW1) -0.01
